Reference: doi:10.1101/2020.07.16.207183
These are yes or no findings as the source states them, for the method shown. Binding seen in cells or lysates may run through a third protein. Some results given as binding are weak or reduced against the parent protein; the word gives no strength. Blank lines part the entries; values can stand above or below the substance they belong to.

Protein sequences, listed by entry. Tags and fused reporters are not part of them. Lines headed by an entry give the natural chain unless they say otherwise; changes in a name come on top.
UniProt Q96D31: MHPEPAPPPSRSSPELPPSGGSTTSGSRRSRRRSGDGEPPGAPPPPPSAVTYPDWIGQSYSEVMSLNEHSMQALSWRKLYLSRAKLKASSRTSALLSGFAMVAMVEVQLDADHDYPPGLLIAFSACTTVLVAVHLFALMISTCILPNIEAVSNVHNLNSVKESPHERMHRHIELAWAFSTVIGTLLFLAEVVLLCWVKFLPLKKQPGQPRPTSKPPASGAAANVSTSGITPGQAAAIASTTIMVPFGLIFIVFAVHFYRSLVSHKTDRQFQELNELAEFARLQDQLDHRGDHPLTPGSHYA

Key:
Assay in all cases: cross-linking
[1] = molecular target: Orai1 V102C H134A (human) (UniProt Q96D31)
Orai1 R91C H134A (human) = Orai1 R91C H134A (human) (UniProt Q96D31)
[2] = molecular target: Orai1 K85E V102C H134A (human) (UniProt Q96D31)
[3] = molecular target: Orai1 R91C H134A L174D (human) (UniProt Q96D31)
Orai1 V102C (human) = Orai1 V102C (human) (UniProt Q96D31)
[4] = molecular target: Orai1 R91C H134A S239W (human) (UniProt Q96D31)
Orai1 R91C (human) = Orai1 R91C (human) (UniProt Q96D31)
[5] = molecular target: Orai1 R91C H134A E149K (human) (UniProt Q96D31)
[6] = molecular target: Orai1 K85E R91C H134A (human) (UniProt Q96D31)

Substance: Orai1 V102C H134A (from UniProt Q96D31-1 1-301)
binding [1]: binds

Substance: Orai1 K85E V102C H134A (from UniProt Q96D31-1 1-301)
binding [2]: binds

Substance: Orai1 V102C (from UniProt Q96D31-1 1-301)
binding (Orai1 V102C (human)): binds

Substance: Orai1 R91C H134A S239W (from UniProt Q96D31-1 1-301)
binding [4]: binds

Substance: Orai1 R91C (from UniProt Q96D31-1 1-301)
binding (Orai1 R91C (human)): binds

Substance: Orai1 R91C H134A E149K (from UniProt Q96D31-1 1-301)
binding [5]: binds

Other lines, results leading:

binding (Orai1 R91C H134A (human)): binds
Substance: Orai1 R91C H134A (from UniProt Q96D31-1 1-301)

binding [3]: binds
Substance: Orai1 R91C H134A L174D (from UniProt Q96D31-1 1-301)

binding [6]: binds
Substance: Orai1 K85E R91C H134A (from UniProt Q96D31-1 1-301)
